For test [1], the target named is PIM1 (human (endogenous in ACHN and 786-O)) (UniProt P11309). The experiment in a line: co-IP; co-IP of PIM1 and c-Myc (Supplementary Figure 3A and B); precipitating antibody not given; protein G-Sepharose beads, overnight at 4 °C.
Test [2] shares this target. The experiment in a line: co-IP; endogenous PIM1 immunoprecipitated with an anti-PIM1 antibody (IgG control) from lysates of ACHN and 786-O cells with control-shRNA or PIM1shRNA; protein G-Sepharose beads, overnight at 4 °C; eluate blotted for p-Smad2 or p-Smad3.

Sequences of proteins named here, by UniProt entry; tags and fusion partners are left off.
UniProt P11309: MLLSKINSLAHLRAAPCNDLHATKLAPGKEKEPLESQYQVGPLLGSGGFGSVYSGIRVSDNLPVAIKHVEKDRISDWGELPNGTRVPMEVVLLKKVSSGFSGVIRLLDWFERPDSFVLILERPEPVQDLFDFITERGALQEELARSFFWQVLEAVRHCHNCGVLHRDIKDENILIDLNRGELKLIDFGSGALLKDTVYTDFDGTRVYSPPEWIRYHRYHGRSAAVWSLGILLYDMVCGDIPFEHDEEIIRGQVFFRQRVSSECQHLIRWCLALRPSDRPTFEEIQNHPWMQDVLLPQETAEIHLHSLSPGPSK
UniProt P01106: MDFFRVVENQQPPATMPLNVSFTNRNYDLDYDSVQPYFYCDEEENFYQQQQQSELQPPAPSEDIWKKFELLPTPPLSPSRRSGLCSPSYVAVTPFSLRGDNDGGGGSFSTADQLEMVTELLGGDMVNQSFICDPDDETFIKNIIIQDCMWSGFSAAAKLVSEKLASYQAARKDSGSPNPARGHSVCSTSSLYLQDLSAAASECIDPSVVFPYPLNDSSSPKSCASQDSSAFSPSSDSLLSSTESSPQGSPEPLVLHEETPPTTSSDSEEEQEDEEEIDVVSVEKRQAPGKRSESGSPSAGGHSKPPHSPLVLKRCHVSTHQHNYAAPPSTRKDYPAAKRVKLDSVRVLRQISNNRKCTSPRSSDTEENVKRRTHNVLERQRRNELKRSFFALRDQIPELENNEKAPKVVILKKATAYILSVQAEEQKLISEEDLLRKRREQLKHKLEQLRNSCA
UniProt Q15796: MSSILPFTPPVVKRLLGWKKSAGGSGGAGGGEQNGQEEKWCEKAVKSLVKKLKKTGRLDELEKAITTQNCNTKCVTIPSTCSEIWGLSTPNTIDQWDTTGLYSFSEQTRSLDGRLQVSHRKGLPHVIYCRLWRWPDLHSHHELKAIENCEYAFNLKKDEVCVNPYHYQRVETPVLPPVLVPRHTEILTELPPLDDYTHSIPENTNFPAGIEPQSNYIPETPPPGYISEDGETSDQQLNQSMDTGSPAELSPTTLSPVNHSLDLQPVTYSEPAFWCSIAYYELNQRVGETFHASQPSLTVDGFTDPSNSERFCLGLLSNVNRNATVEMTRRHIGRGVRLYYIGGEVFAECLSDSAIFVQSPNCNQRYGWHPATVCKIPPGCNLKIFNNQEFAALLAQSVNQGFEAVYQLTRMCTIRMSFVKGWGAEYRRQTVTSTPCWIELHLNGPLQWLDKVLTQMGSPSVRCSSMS
UniProt P84022: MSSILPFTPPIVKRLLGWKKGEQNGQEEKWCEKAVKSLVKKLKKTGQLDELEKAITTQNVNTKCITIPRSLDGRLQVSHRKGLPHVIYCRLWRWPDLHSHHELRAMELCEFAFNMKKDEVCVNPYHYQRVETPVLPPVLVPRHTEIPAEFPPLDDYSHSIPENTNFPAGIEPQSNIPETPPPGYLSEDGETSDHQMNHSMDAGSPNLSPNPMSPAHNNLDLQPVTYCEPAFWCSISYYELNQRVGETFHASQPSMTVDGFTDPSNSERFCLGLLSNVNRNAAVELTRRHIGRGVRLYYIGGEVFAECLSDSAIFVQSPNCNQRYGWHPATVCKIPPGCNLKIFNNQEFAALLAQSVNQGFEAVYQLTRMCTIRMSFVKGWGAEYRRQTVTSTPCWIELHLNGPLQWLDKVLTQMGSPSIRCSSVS

Results are given in words; binding and its absence hold for the method and conditions named. Binding seen in cells or lysates may run through a third protein. Some results given as binding are weak or reduced against the parent protein; the word gives no strength.

For the substance c-Myc (from UniProt P01106 1-454), the binding entry in test [1] is listed as “binds”.
“p-Smad2 (S467) (from UniProt Q15796 1-467)”: the binding entry in test [2] is “binds”.
In the case of “p-Smad3 (S423 and S425) (from UniProt P84022 1-425)”, the binding entry in test [2] is listed as “binds”.

These data come from PMC5833424.
